{"sequences": {"note": "Sequences of proteins named here, by UniProt entry; tags and fusion partners are left off.", "UniProt Q92841": "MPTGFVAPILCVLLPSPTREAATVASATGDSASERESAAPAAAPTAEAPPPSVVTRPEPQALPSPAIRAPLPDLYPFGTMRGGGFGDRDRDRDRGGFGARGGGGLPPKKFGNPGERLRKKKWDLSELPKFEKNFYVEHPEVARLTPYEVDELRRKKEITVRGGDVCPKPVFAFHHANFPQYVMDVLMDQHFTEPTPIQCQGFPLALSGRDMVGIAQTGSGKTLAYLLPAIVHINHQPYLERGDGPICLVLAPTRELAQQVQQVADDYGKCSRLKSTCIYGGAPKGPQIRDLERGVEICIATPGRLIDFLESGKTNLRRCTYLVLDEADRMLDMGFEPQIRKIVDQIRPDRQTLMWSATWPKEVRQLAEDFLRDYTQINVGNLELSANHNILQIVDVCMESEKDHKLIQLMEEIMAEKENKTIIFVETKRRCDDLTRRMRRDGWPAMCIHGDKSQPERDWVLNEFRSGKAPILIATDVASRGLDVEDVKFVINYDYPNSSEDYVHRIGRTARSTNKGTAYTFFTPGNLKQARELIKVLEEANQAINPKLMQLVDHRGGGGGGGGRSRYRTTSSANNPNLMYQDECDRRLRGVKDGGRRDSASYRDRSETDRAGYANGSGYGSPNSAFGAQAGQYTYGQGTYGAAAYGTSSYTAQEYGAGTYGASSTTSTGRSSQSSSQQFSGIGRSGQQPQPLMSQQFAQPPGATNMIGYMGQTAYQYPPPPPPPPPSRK", "UniProt P35222": "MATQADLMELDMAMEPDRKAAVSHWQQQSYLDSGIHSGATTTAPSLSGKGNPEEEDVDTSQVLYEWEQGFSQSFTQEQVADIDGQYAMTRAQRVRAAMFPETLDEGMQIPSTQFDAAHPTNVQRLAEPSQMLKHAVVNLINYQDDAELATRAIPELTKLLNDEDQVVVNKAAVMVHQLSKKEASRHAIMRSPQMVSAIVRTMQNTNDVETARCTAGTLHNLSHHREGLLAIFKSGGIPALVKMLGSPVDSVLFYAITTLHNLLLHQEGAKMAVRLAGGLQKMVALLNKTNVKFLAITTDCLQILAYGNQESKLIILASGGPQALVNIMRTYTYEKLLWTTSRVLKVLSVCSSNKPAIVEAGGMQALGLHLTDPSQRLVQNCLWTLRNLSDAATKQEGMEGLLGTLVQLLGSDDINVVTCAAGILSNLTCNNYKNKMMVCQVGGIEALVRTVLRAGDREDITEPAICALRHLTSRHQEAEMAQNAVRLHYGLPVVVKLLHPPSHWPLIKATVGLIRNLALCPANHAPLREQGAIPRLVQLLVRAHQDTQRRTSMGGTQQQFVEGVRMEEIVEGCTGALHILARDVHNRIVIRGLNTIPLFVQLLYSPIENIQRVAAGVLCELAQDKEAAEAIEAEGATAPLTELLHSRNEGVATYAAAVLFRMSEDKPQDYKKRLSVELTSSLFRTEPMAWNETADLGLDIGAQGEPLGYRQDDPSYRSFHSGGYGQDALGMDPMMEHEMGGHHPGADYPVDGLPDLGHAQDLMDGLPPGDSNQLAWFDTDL"}, "source": "paper PMC11781183", "key": {"[1]": {"target": "DEAD-box RNA helicase 17 (DDX17), endogenous (human (endogenous in HepG2, Huh7, SK-hep1)) (UniProt Q92841)", "assay": "proximity ligation; Duolink In Situ Red Starter Kit Mouse/Rabbit; fixed, permeabilised cells; mouse anti-DDX17 with rabbit anti-β-catenin or rabbit anti-p65; confocal microscopy"}, "[2]": {"target": "DDX17, ectopic (lentiviral overexpression, full-length human DDX17 cDNA in GV341) (human) (UniProt Q92841)", "assay": "co-IP; Pierce Co-IP Kit; extracts of HCC cells (HepG2, Huh7, SK-hep1; parent cells or cells with lentiviral DDX17 overexpression) incubated overnight with anti-DDX17, anti-β-catenin or anti-p65, isotype IgG as negative control; Western blotting; some cells stimulated with rCXCL8 (50 ng/mL, 24 h), TNFα (15 ng/mL, 24 h) or IL-1β (10 ng/mL, 24 h)"}, "[3]": {"target": "DEAD-box RNA helicase 17 (DDX17), endogenous (human (endogenous in HepG2, Huh7, SK-hep1)) (UniProt Q92841)", "assay": "co-IP; Pierce Co-IP Kit; extracts of HCC cells (HepG2, Huh7, SK-hep1; parent cells or cells with lentiviral DDX17 overexpression) incubated overnight with anti-DDX17, anti-β-catenin or anti-p65, isotype IgG as negative control; Western blotting; some cells stimulated with rCXCL8 (50 ng/mL, 24 h), TNFα (15 ng/mL, 24 h) or IL-1β (10 ng/mL, 24 h)"}, "[4]": {"target": "β-catenin, endogenous (human (endogenous in HepG2, Huh7, SK-hep1)) (UniProt P35222)", "assay": "co-IP; Pierce Co-IP Kit; extracts of HCC cells (HepG2, Huh7, SK-hep1; parent cells or cells with lentiviral DDX17 overexpression) incubated overnight with anti-DDX17, anti-β-catenin or anti-p65, isotype IgG as negative control; Western blotting; some cells stimulated with rCXCL8 (50 ng/mL, 24 h), TNFα (15 ng/mL, 24 h) or IL-1β (10 ng/mL, 24 h)"}, "[5]": {"target": "β-catenin, endogenous (human (endogenous in HepG2, Huh7, SK-hep1)) (UniProt P35222)", "assay": "co-IP; nuclear extracts of cells with DDX17 overexpression; IP with anti-β-catenin, Western blotting"}, "[6]": {"target": "HA-DDX17 (human) (UniProt Q92841)", "assay": "co-IP; 293T cells co-transfected with HA-DDX17, c-Myc-β-catenin and Flag-p65 plasmids; IP with anti-HA"}}, "note": "These are yes or no findings as the source states them, for the method shown. In cells and extracts the contact can be indirect. Some binding calls cover weakened binding; strength is not graded here."}
{"substance": "β-catenin, endogenous (from UniProt P35222 1-781)", "values": [{"measurement": "binding", "setting": "[1]", "value": "binds"}, {"measurement": "binding", "setting": "[2]", "value": "binds"}, {"measurement": "binding", "setting": "[3]", "value": "binds"}]}
{"substance": "DEAD-box RNA helicase 17 (DDX17), endogenous (from UniProt Q92841 1-729)", "values": [{"measurement": "binding", "setting": "[4]", "value": "binds"}]}
{"substance": "DDX17, ectopic (lentiviral overexpression, full-length human DDX17 cDNA in GV341) (from UniProt Q92841 1-729)", "values": [{"measurement": "binding", "setting": "[5]", "value": "binds"}, {"measurement": "binding", "setting": "[4]", "value": "binds"}]}
{"substance": "c-Myc-β-catenin (from UniProt P35222 1-781)", "values": [{"measurement": "binding", "setting": "[6]", "value": "binds"}]}
